Binding data for 2 substances are collected here from article PMC8690912.

Sequences of proteins named here, by UniProt entry; tags and fusion partners are left off.
UniProt Q9CY97: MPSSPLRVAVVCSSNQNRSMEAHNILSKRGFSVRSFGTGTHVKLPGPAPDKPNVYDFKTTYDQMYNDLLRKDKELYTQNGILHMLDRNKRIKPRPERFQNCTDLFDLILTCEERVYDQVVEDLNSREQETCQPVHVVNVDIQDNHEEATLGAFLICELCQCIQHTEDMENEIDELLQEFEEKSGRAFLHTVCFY
UniProt Q99J95: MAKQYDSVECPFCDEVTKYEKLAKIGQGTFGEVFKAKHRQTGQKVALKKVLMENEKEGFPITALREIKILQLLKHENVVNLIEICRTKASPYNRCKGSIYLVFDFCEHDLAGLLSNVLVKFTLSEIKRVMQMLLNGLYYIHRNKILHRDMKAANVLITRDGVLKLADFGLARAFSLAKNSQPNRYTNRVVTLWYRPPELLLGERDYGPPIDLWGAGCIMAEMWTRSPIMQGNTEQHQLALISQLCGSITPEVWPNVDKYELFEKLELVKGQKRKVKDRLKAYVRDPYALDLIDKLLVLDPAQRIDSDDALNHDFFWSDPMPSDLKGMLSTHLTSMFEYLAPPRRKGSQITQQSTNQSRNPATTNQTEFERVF
UniProt Q9QWV9: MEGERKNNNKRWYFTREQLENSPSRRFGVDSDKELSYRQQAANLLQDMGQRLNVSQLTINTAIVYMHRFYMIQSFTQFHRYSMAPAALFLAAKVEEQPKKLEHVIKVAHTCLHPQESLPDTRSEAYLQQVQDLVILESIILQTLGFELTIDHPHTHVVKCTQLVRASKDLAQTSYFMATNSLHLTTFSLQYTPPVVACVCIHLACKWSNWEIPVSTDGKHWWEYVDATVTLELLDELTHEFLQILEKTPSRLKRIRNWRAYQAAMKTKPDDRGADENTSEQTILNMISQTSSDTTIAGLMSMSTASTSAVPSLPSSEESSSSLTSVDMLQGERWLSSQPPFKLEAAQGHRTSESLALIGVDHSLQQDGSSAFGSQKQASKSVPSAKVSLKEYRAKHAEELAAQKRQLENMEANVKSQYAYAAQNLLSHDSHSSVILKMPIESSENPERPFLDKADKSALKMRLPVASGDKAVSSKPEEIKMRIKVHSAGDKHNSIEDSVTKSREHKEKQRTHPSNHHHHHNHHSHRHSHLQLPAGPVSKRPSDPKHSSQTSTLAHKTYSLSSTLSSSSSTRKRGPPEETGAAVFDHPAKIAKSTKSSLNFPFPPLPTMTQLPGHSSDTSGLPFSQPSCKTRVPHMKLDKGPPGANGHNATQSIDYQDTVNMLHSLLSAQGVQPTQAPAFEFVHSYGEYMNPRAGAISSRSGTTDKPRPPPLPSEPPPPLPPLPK

Results are given in words; binding and its absence hold for the method and conditions named. In cells and extracts the contact can be indirect. Some entries that bind do so weakly or less than the wild type.

Test [1] concerns the target Ssu72 phosphatase (endogenous mouse Ssu72) (mouse (endogenous in MEFs)) (UniProt Q9CY97). As to the kind of experiment: co-IP; extracts (soluble cytoplasmic and pellet fractions mixed, salt diluted to 150 mM) of Ad-Luc or Ad-Cre (Ssu72-depleted) infected MEFs, immunoprecipitated with IgG, anti-Cdk9, anti-Ssu72 or anti-Pol II antibodies, then immunoblotted; all proteins endogenous. For orientation: In western blotting, separated proteins are transferred to a membrane and probed.

The target of test [2] is HA-tagged Ssu72 (HA-Ssu72) fusion protein (UniProt Q9CY97). As to the kind of experiment: co-IP; inducible MEFs expressing HA-Ssu72, without or with 2 µg/ml doxycycline for 48 h; cellular extracts incubated without or with 50 µg/ml RNase and immunoprecipitated with IgG or HA antibodies.

Take “Cdk9 (from UniProt Q99J95 1-372) (enzyme)”: the binding entry in test [1] and in test [2] was “binds” throughout.

Regarding Cyclin T1 (from UniProt Q9QWV9 1-724), the binding entry in test [1] and in test [2] was “binds” in each case.
